Paper PMC8262337
No constants are given. Whether binding was seen depends on the method and setting. In cells and extracts the contact can be indirect. For part of these data: Binding can be weak; no strength is given. Where a sequence is shown, tags or fusion partners need not be part of it.

Sequences of proteins named here, by UniProt entry; tags and fusion partners are left off. A change or cut given only in a name is not applied to a line headed by its entry.
UniProt Q96AP0: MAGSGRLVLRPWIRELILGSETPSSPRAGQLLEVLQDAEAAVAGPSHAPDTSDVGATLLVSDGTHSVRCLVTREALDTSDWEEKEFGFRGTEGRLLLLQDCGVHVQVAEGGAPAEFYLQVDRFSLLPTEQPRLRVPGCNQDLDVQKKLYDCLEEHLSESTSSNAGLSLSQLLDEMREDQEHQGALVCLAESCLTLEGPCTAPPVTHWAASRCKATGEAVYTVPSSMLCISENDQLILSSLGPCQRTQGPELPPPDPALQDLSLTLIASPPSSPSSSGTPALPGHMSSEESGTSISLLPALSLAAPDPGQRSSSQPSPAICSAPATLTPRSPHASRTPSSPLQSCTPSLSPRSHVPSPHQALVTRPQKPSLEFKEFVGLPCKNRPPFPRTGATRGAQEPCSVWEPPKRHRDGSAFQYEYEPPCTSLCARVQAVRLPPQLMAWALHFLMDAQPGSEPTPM

T1: Myc-tagged TIN2 (UniProt Q9BSI4)
T1 sequence: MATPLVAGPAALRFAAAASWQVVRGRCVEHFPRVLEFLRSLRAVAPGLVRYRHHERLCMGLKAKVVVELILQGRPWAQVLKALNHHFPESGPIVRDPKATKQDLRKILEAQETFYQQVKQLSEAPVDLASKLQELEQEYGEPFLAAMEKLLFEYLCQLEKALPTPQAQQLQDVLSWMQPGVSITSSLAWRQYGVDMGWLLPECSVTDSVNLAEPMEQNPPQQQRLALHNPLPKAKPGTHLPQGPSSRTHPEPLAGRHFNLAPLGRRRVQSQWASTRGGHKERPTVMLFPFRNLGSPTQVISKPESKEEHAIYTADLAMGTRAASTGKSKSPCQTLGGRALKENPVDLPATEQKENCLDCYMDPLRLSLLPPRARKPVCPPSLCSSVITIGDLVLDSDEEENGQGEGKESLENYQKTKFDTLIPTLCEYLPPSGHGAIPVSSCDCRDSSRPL

B1: Myc-tagged TIN2 (protein, UniProt Q9BSI4 1-451)
chain: T1 sequence

How the values were obtained:
[1] = target: T1, Myc-tagged TIN2; test: co-IP; Myc-TIN2, FLAG-TRF2 and the FLAG-TPP1 construct transiently coexpressed in HeLa-EM2-11ht cells; c-Myc antibody 9E10, then protein A/G agarose overnight at 4 °C; blot with anti-FLAG (Figure 3A)
[2] = target: FLAG-tagged TPP1 P507A (human) (UniProt Q96AP0); test: co-IP; FLAG-TPP1 construct and Myc-POT1 or Myc-TIN2 transiently coexpressed in HeLa-EM2-11ht cells; lysate on anti-FLAG M2 affinity gel overnight at 4 °C; blot with anti-Myc and anti-FLAG (Figure 2A, 2B)
[3] = target: FLAG-tagged TPP1 L511A (human) (UniProt Q96AP0); test: as above
[4] = target: FLAG-tagged TPP1 R519A/L520A (human) (UniProt Q96AP0); test: as above
[5] = target: FLAG-tagged TPP1 Y502A/Y504A (human) (UniProt Q96AP0); test: as above
[6] = target: FLAG-tagged TPP1 L524A/W527A (human) (UniProt Q96AP0); test: as above
[7] = target: FLAG-tagged TPP1 F500A/Q501A (human) (UniProt Q96AP0); test: as above
[8] = target: FLAG-tagged TPP1 D496A (human) (UniProt Q96AP0); test: as above

Molecule | binding [1] | binding [2] | binding [3] | binding [4] | binding [5] | binding [6] | binding [7] | binding [8]
FLAG-tagged TPP1 R519A/L520A (from UniProt Q96AP0) | no binding | – | – | – | – | – | – | –
FLAG-tagged TPP1 (human TPP1-S isoform), wild type (from UniProt Q96AP0) | binds | – | – | – | – | – | – | –
B1 | – | no binding | binds | no binding | no binding | no binding | no binding | no binding
